Binding data for eight molecules are collected here from paper PMC4821239, “Molecular architecture of the Dam1 complex–microtubule interaction” (Open Biology, 2016).

T1: Hsk3 (budding yeast) (UniProt P69852)
T1 sequence: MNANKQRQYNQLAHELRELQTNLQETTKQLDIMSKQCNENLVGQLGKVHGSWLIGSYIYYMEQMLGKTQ

B1: Dam1ΔC (domain or fragment, UniProt P53267 1-205)
chain: MSEDKAKLGTTRSATEYRLSIGSAPTSRRSSMGESSSLMKFADQEGLTSSVGEYNENTIQQLLLPKIRELSDSIITLDSNFTRLNFIHESLADLNESLGSLLYGIMSNSWCVEFSQAPHDIQDDLIAIKQLKSLEDEKNNLVMELSNMERGIKRKKDEQGENDLAKASQNKQFNQPLFPSSQVRKYRSYDNRDKRKPSKIGNNLQ
B2: Ask1 (natural protein, budding yeast, UniProt P35734 1-292, looked up)
chain: MDSASKEETLEKLDQEITVNLQKIDSNLSFCFHKITQDIIPHVATYSEICERIMDSTEWLGTMFQETGLVNLQANAAAPVGNAPVKSLVSNNVGIFPTSAEEASRQSQTDNGPNEADSAVHVNRDVHSMFNNDSIDDFHTANITSTGQILKLPDSSDEDTGSEAVPSREQTDLTGEGHGGADDEQDESTIQRQSRKRKISLLLQQQYGSSSSMVPSPIVPNKMRKQLAHEEHINNDGDNDDENSNNIESSPLKQGHHHPKGQADDNNEGPDEEESTKEVPKPGTIIHFSTNR
notes: Ask1, subunit of the budding yeast Dam1 complex; Subunit inside the recombinant 10-subunit complex; source: expressed and purified as part of the Dam1 complex as described [3]
B3: Spc19 (natural protein, budding yeast, UniProt Q03954 1-165, looked up)
chain: MTDALEQSVLALEGTVSVLKDSVESLKCANEPSTNLASTMLQTKRVFRLVPEYDVERSKLDLIEEVEPLVRTLGDKLRKSMGRMQRELDTLQQTYELNDLRLKKNISMDDDDALNSPDMGQEYEGRDADDVVMMASSTNEELEELKKLKEKKKQLENKLEILKQK
notes: Spc19, subunit of the budding yeast Dam1 complex; Subunit inside the recombinant 10-subunit complex; also called Sp19; source: expressed and purified as part of the Dam1 complex as described [3]
B4: Dad3 (protein, UniProt P69850 1-94)
chain: MEHNLSPLQQEVLDKYKQLSLDLKALDETIKELNYSQHRQQHSQQETVSPDEILQEMRDIEVKIGLVGTLLKGSVYSLILQRKQEQESLGSNSK
B5: Duo1Δ184 (domain or fragment, budding yeast, UniProt P53168 1-183, looked up)
chain: MSEQSQLDDSTIDKLIPQIFNEMRSNLNNTTNKFPKSTGGGASDNISANSNSIRSFNSITTQSLLKESESLDKITAMIKNVTAALKNNLPVYVNQVHEVCKSTNSILDSWINIHSQAGYIHKLMSDQTYLKLINDRLHNENVNTNDEDGSTLHNVIALKKKEILDLRQKLENRKGEKDAAPAK
notes: Duo1, budding yeast; stop codon inserted at position 184; Subunit inside the Dam1 complex Duo1Δ184; also called Duo1 lacking its C terminus (Δ184); source: purified as part of the Dam1 complex Duo1Δ184 (Ni–NTA, Superose 6 size-exclusion chromatography)
B6: Dad1 (protein, UniProt Q12248 1-94)
chain: MMASTSNDEEKLISTTDKYFIEQRNIVLQEINETMNSILNGLNGLNISLESSIAVGREFQSVSDLWKTLYDGLESLSDEAPIDEQPTLSQSKTK
B7: Duo1Δ211 (domain or fragment, UniProt P53168 1-210)
chain: MSEQSQLDDSTIDKLIPQIFNEMRSNLNNTTNKFPKSTGGGASDNISANSNSIRSFNSITTQSLLKESESLDKITAMIKNVTAALKNNLPVYVNQVHEVCKSTNSILDSWINIHSQAGYIHKLMSDQTYLKLINDRLHNENVNTNDEDGSTLHNVIALKKKEILDLRQKLENRKGEKDAAPAKPPNQGLNPRYGVQSGRRPVPSAGISNN
B8: Spc34 (natural protein, budding yeast, UniProt P36131 1-295, looked up)
chain: MGESLDRCIDDINRAVDSMSTLYFKPPGIFHNAILQGASNKASIRKDITRLIKDCNHDEAYLLFKVNPEKQSVSRRDGKEGVFDYVIKRDTDMKRNRRLGRPGEKPIIHVPKEVYLNKDRLDLNNKRRRTATTSGGGLNGFIFDTDLIGSSVISNSSSGTFKALSAVFKDDPQIQRLLYALENGSVLMEEESNNQRRKTIFVEDFPTDLILKVMAEVTDLWPLTEFKQDYDQLYHNYEQLSSKLRFIKKEVLLQDDRLKTMSQYHPSSSHDVAKIIRKEKDEIRRLEMEIANLQE
notes: Spc34, subunit of the budding yeast Dam1 complex; Subunit inside the recombinant 10-subunit complex; source: expressed and purified as part of the Dam1 complex as described [3]

No constants are given. Whether binding was seen depends on the method and setting. In cells and extracts the contact can be indirect. Here binding means that the protein was enriched with, or labelled near, the bait; the list need not be complete.

This experiment has as its target T1, Hsk3 (budding yeast). Briefly: affinity purification with mass spectrometry; mutant Dam1 complexes purified by the His tag on Hsk3 (Ni-NTA), then Superose 6 size-exclusion chromatography; proteins identified by mass spectrometry.
With B1, the binding result is on record as “binds”.
For B2, the binding result is given as “binds”.
For the molecule B3, the binding result was “binds”.
For B4 the value was “binds”; for B5, “binds”; for B6, “binds”.
Next, B7: “binds”.
Next, B8: “binds”.
